## Library screening results

Data taken from ChEMBL document CHEMBL3988442, “University of Dundee, Small-Polar-MMV Screening Library” (2021).

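Viability assay of Plasmodium falciparum sporozoites; the read-out is not stated. The concentration is filed as 10 mM, unlikely as a test dose, so the dose is not known. Higher reads as lower viability (inferred: compounds with an IC50 in retests scored well above the rest). Strong results were mostly tested again. Of about 34,000 compounds tested this way, about 280 (0.84%) reached 50% or more in at least one test.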

Results are given as percent effect. The record does not define 0% and 100%; most values in the screen are far below 50% and negative numbers occur (in some assays of this library far below -100). Compounds were drawn at random from those tested, without regard to their results. Two or more numbers in one place are separate tests of the same structure; such repeats can differ widely.

c1coc(-c2nnc(CN3CCOC(Cn4cccn4)C3)o2)c1 (stereo not shown) read 4.03%.
Cc1nccn1CCCC(=O)Nc1nc(C(C)C)nn1C read -11.24%.
[H][C@@]12C[C@@H](c3ccnc(C)n3)O[C@]1([H])CN(S(=O)(=O)c1ccccc1)C2 read -0.614%.
CC(C)n1ccnc1C1CCN(Cc2ccc(Cl)c(F)c2)CC1 read 5.453%.
O=C(O)C(F)(F)F.O=C(O)C(F)(F)F.c1cncc(-c2ncnc3c2CCN(Cc2cccs2)CC3)c1 read 8.158%.
CN(Cc1cccc(C(N)=O)c1)c1ncc(C(N)=O)cc1Cl read 0.3911%.
CCCn1ccnc1-c1cccc(NC2CCOC2)c1 (stereo not shown) read -0.08651%.
O=C([C@H](O)c1ccccc1)N1CCN(c2cccc(Cl)c2)C(=O)C1 read -0.9585%.
CC(C)n1cnnc1CN(C)C(=O)c1ccccc1N1CCOCC1 read -17.45%.
COc1ccc(OCCN2CCC(N3CCNC3=O)CC2)cc1 read 1.519%.
COc1cc(C(=O)NC(CC(=O)O)c2cccs2)cc(OC)c1C (stereo not shown) read 0.06729%.
CCc1nc(-c2cccc(C(=O)O)c2)no1 read 7.751%.
CCN1CCCn2c(nc(CNC(=O)c3ccsc3)cc2=O)C1 read -13.03%.
CC(C)CC(=O)N1CC(=O)c2sc(NCCc3ccccc3)nc2C1 read 8.044%.
CCC(CNC(=O)c1cc(OC)ccc1Br)N1CCc2ccccc2C1 (stereo not shown) read 1.529%.
Cc1c[nH]nc1C1CCN(C(=O)Cn2cccn2)C1 (stereo not shown) read -3.397%.
COc1ccc(CNC(Cc2ccsc2)c2ncccc2C)cc1OC (stereo not shown) read 10.16%.
Cn1cc(NC(=O)N2CCC(c3ccccc3)CC2)ccc1=O read 1.61%.
CCn1c(CN(C)C)nnc1C1CCN(Cc2cccc(OC)c2)CC1 read 2.399%.
CCCc1n[nH]c(C2CN(C(=O)c3cc4c(s3)CCC4)CCO2)n1 (stereo not shown) read -4.608% and -0.5587% and 0.7529%.
O=C(O)C(F)(F)F.O=C(O)C(F)(F)F.[H][C@@]12CN(Cc3ccoc3)C[C@]1([H])C(=O)N(Cc1ccncc1)C2 read 8.724%.
COc1ccccc1C(=O)N1CC(=O)N(CC2CC2)CC(O)C1 (stereo not shown) read -23.98%.
CN(Cc1cccnc1)Cc1cncc2c1CCN(c1ccccn1)C2.Cl.Cl.Cl read 7.722% and 28.44% and 14.8%.
CC(C)CCN1CCN(C(=O)c2cnccn2)CC1 read -11.98% and -21.19%.
CN(CCC(O)c1ccccc1)Cc1nc(-c2ccccc2)no1 (stereo not shown) read 17.17%.
O=C(NCCNc1ccc(C(F)(F)F)cn1)c1ccc(Br)cc1F read 5.318%.
Cc1cnn(CCNCC(O)COc2c(C)ccc(C)c2C)c1 (stereo not shown) read 2.056%.
CCc1cc(=O)[nH]c2nnc(SCC(=O)NC)n12 read 5.36% and 10.45%.
CCN(CC)CC1CCN(Cc2ccn(C)c(=O)c2)CC1 read -2.701%.
O=C(O)C(F)(F)F.[H][C@@]12CN(C(=O)C3CCOC3)C[C@]1([H])C(=O)N(Cc1ccncc1)C2 (stereo partly shown) read 9.283%.
Cc1noc(CN2CCCC2c2noc(C3CC3)n2)n1 (stereo not shown) read 4.121%.
Cc1ccccc1S(=O)(=O)N(C)[C@@H]1CC[C@@H](n2ccnc2C)[C@@H]1O read 8.855%.
COCCC(=O)N1CCc2cc(Cl)cc(Cl)c2C1 read -17.88%.
CNS(=O)(=O)c1ccc(CNC(=O)N2CCOC(C)C2)cc1 (stereo not shown) read -2.999%.
O=C(O)C(F)(F)F.[H][C@@]12CCCO[C@]1([H])[C@H](NC(=O)N(C)C)CN2Cc1ccc2c(c1)OCO2 read 1.407%.
COCc1nc2cc(NCc3ccc(CO)o3)ccc2o1 read 11.53%.
COc1ccc(-c2n[nH]c(C)c2CC(=O)N2CCOCC2)cc1 read 1.74%.
CSc1nccc(N2CCC(=O)N(CC3CC3)C(C(C)C)C2)n1 (stereo not shown) read -0.2632%.
CC(=O)N1CCN(CCNS(=O)(=O)c2ccc(C)c(F)c2)CC1 read 19.5%.
Cc1ccc(NC2CCN(C(=O)CCc3c(C)noc3C)CC2)nn1 read 7.391%.
Cc1cccc(NC2CCN(C(=O)Nc3cc(C)on3)CC2)n1 read -14.01% and -10.27% and -2.385%.
CC(=O)NCC1CN(c2ccc3c(Cl)ccnc3c2F)CCO1 (stereo not shown) read -23.32% and -21.79%.
CN(CCc1cn[nH]c1)C(=O)CCc1ccc(Cl)cc1 read -26.82% and -6.714% and -23.81%.

Repeated from the top, 5 entries:

{"compound": "c1coc(-c2nnc(CN3CCOC(Cn4cccn4)C3)o2)c1", "stereo": "stereo not shown", "percent effect": 4.03}
{"compound": "Cc1nccn1CCCC(=O)Nc1nc(C(C)C)nn1C", "percent effect": -11.24}
{"compound": "[H][C@@]12C[C@@H](c3ccnc(C)n3)O[C@]1([H])CN(S(=O)(=O)c1ccccc1)C2", "percent effect": -0.614}
{"compound": "CC(C)n1ccnc1C1CCN(Cc2ccc(Cl)c(F)c2)CC1", "percent effect": 5.453}
{"compound": "O=C(O)C(F)(F)F.O=C(O)C(F)(F)F.c1cncc(-c2ncnc3c2CCN(Cc2cccs2)CC3)c1", "percent effect": 8.158}